Results of single-concentration screens

Sequences of proteins named here, by UniProt entry; tags and fusion partners are left off. Residues count along the entry.
UniProt P9WNZ1, whole entry: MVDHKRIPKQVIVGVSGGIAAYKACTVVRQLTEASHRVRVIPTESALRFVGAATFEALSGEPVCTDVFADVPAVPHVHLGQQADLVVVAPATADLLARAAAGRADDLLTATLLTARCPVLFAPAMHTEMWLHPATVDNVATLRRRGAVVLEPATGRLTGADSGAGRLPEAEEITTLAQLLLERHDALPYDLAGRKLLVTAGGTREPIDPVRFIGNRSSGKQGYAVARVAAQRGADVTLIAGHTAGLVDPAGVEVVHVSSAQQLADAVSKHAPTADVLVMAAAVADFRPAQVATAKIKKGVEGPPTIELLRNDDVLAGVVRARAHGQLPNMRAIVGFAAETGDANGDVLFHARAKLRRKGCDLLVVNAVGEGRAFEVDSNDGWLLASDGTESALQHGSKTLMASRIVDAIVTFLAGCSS
UniProt I6X8D2, whole entry: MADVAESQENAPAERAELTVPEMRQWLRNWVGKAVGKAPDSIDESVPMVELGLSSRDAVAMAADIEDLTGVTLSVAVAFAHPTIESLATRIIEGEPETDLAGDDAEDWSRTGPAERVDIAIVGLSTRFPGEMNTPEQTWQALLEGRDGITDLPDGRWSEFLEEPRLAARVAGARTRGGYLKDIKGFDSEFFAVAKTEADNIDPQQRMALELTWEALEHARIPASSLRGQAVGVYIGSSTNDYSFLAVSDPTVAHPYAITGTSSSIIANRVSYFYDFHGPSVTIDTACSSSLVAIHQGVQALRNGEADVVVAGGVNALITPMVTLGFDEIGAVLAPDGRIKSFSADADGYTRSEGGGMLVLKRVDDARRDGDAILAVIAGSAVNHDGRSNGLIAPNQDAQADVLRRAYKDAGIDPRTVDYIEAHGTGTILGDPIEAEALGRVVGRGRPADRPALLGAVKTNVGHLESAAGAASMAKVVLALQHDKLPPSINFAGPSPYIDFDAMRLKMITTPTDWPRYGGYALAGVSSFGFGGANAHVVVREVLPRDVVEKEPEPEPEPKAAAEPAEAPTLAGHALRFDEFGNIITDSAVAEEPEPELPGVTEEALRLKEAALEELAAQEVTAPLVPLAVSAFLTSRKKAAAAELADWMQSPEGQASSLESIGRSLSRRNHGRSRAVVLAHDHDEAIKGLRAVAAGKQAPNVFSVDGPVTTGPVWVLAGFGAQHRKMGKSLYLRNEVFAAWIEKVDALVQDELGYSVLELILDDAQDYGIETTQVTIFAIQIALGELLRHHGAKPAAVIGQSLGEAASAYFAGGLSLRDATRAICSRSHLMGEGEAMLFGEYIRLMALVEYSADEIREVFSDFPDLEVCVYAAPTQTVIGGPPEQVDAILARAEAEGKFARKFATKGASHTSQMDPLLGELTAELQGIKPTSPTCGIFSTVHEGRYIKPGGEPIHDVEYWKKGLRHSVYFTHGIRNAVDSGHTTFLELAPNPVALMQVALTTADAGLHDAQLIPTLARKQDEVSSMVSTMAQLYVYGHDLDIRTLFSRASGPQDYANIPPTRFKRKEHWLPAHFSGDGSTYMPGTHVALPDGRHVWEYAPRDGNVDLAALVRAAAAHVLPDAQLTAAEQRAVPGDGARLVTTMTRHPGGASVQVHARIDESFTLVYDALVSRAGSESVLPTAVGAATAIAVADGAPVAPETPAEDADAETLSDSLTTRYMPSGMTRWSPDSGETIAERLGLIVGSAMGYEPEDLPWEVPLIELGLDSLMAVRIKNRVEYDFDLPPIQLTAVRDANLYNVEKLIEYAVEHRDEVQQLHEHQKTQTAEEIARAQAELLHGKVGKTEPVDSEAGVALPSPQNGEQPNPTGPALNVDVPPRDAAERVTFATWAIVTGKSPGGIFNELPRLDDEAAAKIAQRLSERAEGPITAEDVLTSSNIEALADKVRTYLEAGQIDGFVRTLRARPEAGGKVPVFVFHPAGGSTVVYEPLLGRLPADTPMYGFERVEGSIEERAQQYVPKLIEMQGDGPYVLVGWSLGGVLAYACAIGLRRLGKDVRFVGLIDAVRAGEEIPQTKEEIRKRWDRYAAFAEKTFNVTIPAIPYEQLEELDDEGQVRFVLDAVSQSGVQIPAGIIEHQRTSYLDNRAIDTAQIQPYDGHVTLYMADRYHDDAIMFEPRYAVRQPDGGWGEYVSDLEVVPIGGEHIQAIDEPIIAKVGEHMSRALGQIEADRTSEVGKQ
UniProt P9WFT3, whole entry: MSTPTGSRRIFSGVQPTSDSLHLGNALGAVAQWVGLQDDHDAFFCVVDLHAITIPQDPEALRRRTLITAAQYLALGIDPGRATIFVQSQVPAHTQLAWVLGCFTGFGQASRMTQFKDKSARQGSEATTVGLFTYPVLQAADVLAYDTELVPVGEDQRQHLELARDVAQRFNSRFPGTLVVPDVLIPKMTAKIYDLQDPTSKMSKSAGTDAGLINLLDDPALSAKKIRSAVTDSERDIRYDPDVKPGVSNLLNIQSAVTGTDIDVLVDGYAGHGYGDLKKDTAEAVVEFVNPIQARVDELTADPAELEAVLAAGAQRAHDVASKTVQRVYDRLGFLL
UniProt A4I591, 1-473: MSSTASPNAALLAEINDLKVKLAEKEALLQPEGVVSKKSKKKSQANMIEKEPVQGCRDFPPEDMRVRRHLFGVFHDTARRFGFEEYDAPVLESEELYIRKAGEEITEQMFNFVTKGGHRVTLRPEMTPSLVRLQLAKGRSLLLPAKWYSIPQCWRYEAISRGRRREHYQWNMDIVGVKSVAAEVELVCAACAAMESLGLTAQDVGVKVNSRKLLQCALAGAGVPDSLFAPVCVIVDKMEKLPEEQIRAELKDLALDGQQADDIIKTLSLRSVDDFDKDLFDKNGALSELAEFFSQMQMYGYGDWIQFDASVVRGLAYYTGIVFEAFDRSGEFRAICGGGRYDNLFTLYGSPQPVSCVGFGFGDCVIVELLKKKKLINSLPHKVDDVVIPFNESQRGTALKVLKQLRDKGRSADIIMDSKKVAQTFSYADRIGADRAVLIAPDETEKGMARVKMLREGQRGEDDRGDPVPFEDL

From ChEMBL document CHEMBL3988442, “University of Dundee, Small-Polar-MMV Screening Library” (2021).

CoaBC: 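Coenzyme A biosynthesis protein CoaBC, Mycobacterium tuberculosis (UniProt P9WNZ1). Enzyme assay of CoaBC with a phosphate dye (Biomol Green) read at 650 nm. Concentration: 30 µM. Direction is inferred from only a few compounds that gave an IC50; most scored high, so higher reads as stronger inhibition. Most strong results did not repeat in a second test. About 67,000 compounds were tested under these conditions; 0.06% (about 40) showed 50% or more at least once.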
Pks13 thioesterase: 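Polyketide synthase Pks13, Mycobacterium tuberculosis (UniProt I6X8D2). Enzyme assay of the thioesterase domain of polyketide synthase 13; the read-out is not stated. Compounds at 30 µM. Higher reads as stronger inhibition (inferred from which compounds were picked for retests). Size under these conditions: about 67,000 compounds, about 300 of them at 50% or above in at least one test.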
MtTrpRS: 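Enzyme assay of tryptophanyl-tRNA synthetase; the read-out is not stated. Target: Tryptophan-tRNA ligase, Mycobacterium tuberculosis (UniProt P9WFT3). Concentration: 10 µM. Higher most likely means stronger inhibition; the record gives no direction and few retests gave an IC50. Size under these conditions: about 65,000 compounds, about 64 of them at 50% or above in at least one test.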
LiHisRS: 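Histidine-tRNA ligase, Leishmania infantum (UniProt A4I591). Enzyme assay of histidyl-tRNA synthetase; the read-out is not stated. Concentration: 30 µM. Direction is inferred from retests: higher values go with stronger inhibition. The assay is labelled LdHisRS but filed under L. infantum. About 69,000 compounds were tested under these conditions; 0.6% (about 410) showed 50% or more at least once.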

Values are the deposited “Percent Effect”, in %.
How 0% and 100% were set is not recorded. Most values in the screen are low, and negative values occur.
Compounds were drawn at random from those tested, without regard to their results.
A dash means the value is not listed here; it may have been measured.

For CN(C)C1(CNC(=O)Cc2ccc(F)cc2)CCOCC1 the result was CoaBC: 4.912%; MtTrpRS: -3.216%; LiHisRS: 16.67%. Cc1c(C(=O)O)nnn1-c1cccc2cccnc12 gave CoaBC: 8.333%; Pks13 thioesterase: -8.844%; MtTrpRS: 0.3812%; LiHisRS: 9.821%. With Cc1c(C(=O)N2CCC(C(O)c3ccc(Cl)cc3)CC2)cnn1C (stereo not drawn) the screen gave CoaBC: -0.7353%; Pks13 thioesterase: -4.102%; MtTrpRS: -1.605%; LiHisRS: 4.444%. For O=C1NCCN(CC2CC2)C12CCN(Cc1ccccc1)CC2 the result was CoaBC: -24.95%; Pks13 thioesterase: -8.748%; MtTrpRS: -0.6875%; LiHisRS: 6.422%. For COC(=O)C(NC(=O)CCOC(C)C)c1cc(F)ccc1F (stereo not drawn) the result was CoaBC: -1.673%; Pks13 thioesterase: -15.21%; MtTrpRS: 9.427%; LiHisRS: 1.923%. COc1c(CNCc2ccc3c(c2)OCCO3)c(C(C)C)nn1C gave CoaBC: -1.695%; Pks13 thioesterase: -11.59%; MtTrpRS: -1.237%; LiHisRS: 0.8772%. Result for CC(C)N(CCSc1ncnc2[nH]ncc12)C(C)C was CoaBC: 10.04%; Pks13 thioesterase: -15.91%; MtTrpRS: -2.457%; LiHisRS: 16.42%.

COCCNS(=O)(=O)c1ccc(Cl)c(C(=O)N(C)Cc2sccc2C)c1 gave CoaBC: 10.33%; Pks13 thioesterase: -36.6%; MtTrpRS: 1.257%; LiHisRS: 13.33%. COc1ccc(CCN(C)C(=O)CN2C(=O)OC[C@@H]2C(C)C)cc1OC read CoaBC: -1.517%; Pks13 thioesterase: -5.069%; MtTrpRS: 3.35%; LiHisRS: 13.33%. CS(=O)(=O)NCc1cncc2c1CCN(C(=O)c1ccccn1)C2 gave CoaBC: -4.809%; Pks13 thioesterase: -1.361%; MtTrpRS: -5.94%; LiHisRS: 1.389%. Cc1cc(NCc2cccc(C#N)c2)ccc1Br read CoaBC: -11.56%; Pks13 thioesterase: 58.45%; MtTrpRS: -0.6159%; LiHisRS: 16.48%. For COCC1CN(C(=O)c2cnc(C)cn2)Cc2ncnn2C1 (stereo not drawn) the result was CoaBC: -1.142%; Pks13 thioesterase: -20.02%; MtTrpRS: -5.542%; LiHisRS: 9.589%. Cc1noc(CN(C)c2ccccc2)n1 read CoaBC: 1.351%; Pks13 thioesterase: 3.875%; MtTrpRS: 2.545%; LiHisRS: 4.651%. With COc1cccc(CC(=O)N2Cc3nccn3CC(CN(C)C)C2)c1 (stereo not drawn) the screen gave CoaBC: 5.977%; MtTrpRS: 1.001%; LiHisRS: 9.574%.

Result for Cc1nc(C(=O)N2CCCC(c3cccc(-n4ccnc4)n3)C2)co1 (stereo not drawn) was CoaBC: 4.167%; Pks13 thioesterase: -44.96%; MtTrpRS: -1.756%; LiHisRS: 5.556%. With CC(=O)N(Cc1ccc(NCc2cnn(C(C)(C)C)c2)cc1)C(C)C the screen gave CoaBC: 13.06%; Pks13 thioesterase: -6.736%; MtTrpRS: -0.8811%; LiHisRS: 14.29%. For Cn1ccnc1CN1CCC2(CC1)CC(Oc1cccnc1)C2 the result was CoaBC: 0.6345%; Pks13 thioesterase: -2.816%; MtTrpRS: 1.364%; LiHisRS: 15.09%.

The first 2 entries again:

| compound | CoaBC | Pks13 thioesterase | MtTrpRS | LiHisRS |
|---|---|---|---|---|
| `CN(C)C1(CNC(=O)Cc2ccc(F)cc2)CCOCC1` | 4.912 | - | -3.216 | 16.67 |
| `Cc1c(C(=O)O)nnn1-c1cccc2cccnc12` | 8.333 | -8.844 | 0.3812 | 9.821 |